From PubChem BioAssay AID1347076 (National Center for Advancing Translational Sciences (NCATS), 2019)
Screen size: about 400,000 compounds; about 13,000 (3.2%) were called active. Inconclusive results, whose numbers are uncertain, are shown with a selection of clear calls. Calls follow the shape of the dose curve; as a rule, active = well fitted cell-killing curve with a large enough effect; inconclusive = small, poorly fitted or top-dose-only effect, or effect the other way; inactive = flat fitted curve, though single readings scatter. Where the call is inconclusive, the potency comes from a doubtful curve fit.
% is scaled to controls: 0 for no effect and ±100 for the full control effect; potency is read from the fitted curve at half-maximal effect.

Test: qHTS assay for MDR1-selective chemotherapeutics: Primary screen using the drug-selected MDR subline cells KB-V1; also: nearly all actives have a fitted effect of over 60% in size
Conditions: KB-V1 MDR cells viability, CellTiter-Glo, 72 h; activity change, negative = cytotoxicity: at 46.1 µM (top of the series)
How it was run: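 Cytotoxicity via CellTiter-Glo luminescence after 72 h compound exposure at 37 degrees C. Cells: drug-selected KB-V1 line, DMEM phenol-red free plus 10% FBS. Compounds tested at multiple concentrations; normalized data fitted to concentration-effect curves.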
In the case of `O=c1c2cc(Br)ccc2nc(-c2cccc(Cl)c2)n1O`, the Potency was inconclusive: 13 µM [cytotoxic, partial curve, poor fit].
For `CCCC(C)(C)C(=O)N1CCC1(C)C(=O)NS(=O)(=O)c1ccc(Cl)cc1` (centres undefined), the “activity change, negative = cytotoxicity” value was inactive: 0.661%.
With `COc1ccc(OC)c(NC(=O)CN(c2ccc(C)cc2)S(=O)(=O)c2c(C)noc2C)c1` the Potency was inconclusive: 16.4 µM [cytotoxic, single point].
In the case of `CCOc1ccc(S(=O)(=O)NNC(=O)c2cc3ccccc3o2)cc1`, the Potency was inconclusive: 23.1 µM [cytotoxic, single point].
For `COc1ccc(C(C(=O)NC2CCCC2)n2c(-c3cccs3)nc3ccccc32)cc1` (centres undefined), the Potency was inconclusive: 5.8 µM [cytotoxic, partial curve, poor fit].
With `CC(C)C[C@H](NC(=O)N1CC(=O)Nc2ccccc21)C(=O)N[C@@H](C(=O)O)c1ccccc1` the Potency was inconclusive: 32.6 µM [rising, partial curve, poor fit].
For `Cc1ccc(CCNc2ccc3ccccc3c2)cn1`, the Potency was inconclusive: 29.1 µM [cytotoxic, single point].
For `CCCCOC(=O)c1ccc(NC(=O)/C=C/c2cccs2)cc1`, the Potency was inconclusive: 8.2 µM [cytotoxic, partial curve, poor fit].
With `O=C(O)COc1ccc(Br)cc1/C=N\Nc1ccccn1` the Potency was inconclusive: 29.1 µM [rising, single point].
With `NC(Cc1ccc(C(F)(F)F)cc1)c1csc(Nc2ccc(C(=O)c3ccccc3)cc2)n1` (centres undefined) the Potency was active: 23.1 µM.
In the case of `Cc1cc(C)n(-c2ccc(NC(=O)C3CCCCN3C(=O)c3cccs3)cc2)n1` (centres undefined), the Potency was inconclusive: 4.11 µM [cytotoxic, full curve, poor fit].
In the case of `CCOc1ccc(CN2CCNC(=O)C2CC(=O)NCc2csc(C(C)C)n2)cc1` (centres undefined), the activity change, negative = cytotoxicity was inconclusive: 19.3%.
With `O=C(c1ccccc1S(=O)(=O)NCC(O)COc1ccc([N+](=O)[O-])cc1)N1CCCCC1` (centres undefined) the Potency was inconclusive: 29.1 µM [cytotoxic, single point].
In the case of `N#Cc1cnn(-c2nc(SCc3ccccc3)nc3sc4c(c23)CCCC4)c1N`, the Potency was active: 20.6 µM.
With `COC(=O)c1ccc(NC(=O)CN(c2ccc(C)cc2)S(=O)(=O)c2c(C)nn(C)c2C)cc1` the Potency was inconclusive: 5.8 µM [cytotoxic, partial curve, poor fit].
With `Cc1ccc(C(=O)NCC(=O)OCC(=O)NC(C)C2CC3CCC2C3)cc1` (centres undefined) the Potency was inconclusive: 29.1 µM [rising, single point].
For `CCOC(=O)c1c(C)[nH]c(C(=O)OCC(=O)Nc2ccc(OC)c(Cl)c2)c1C`, the Potency was inconclusive: 18.4 µM [cytotoxic, partial curve, poor fit].
With `NC(=NCc1ccc2c(c1)OCO2)NC(=O)c1ccccc1` the Potency was inconclusive: 29.1 µM [cytotoxic, single point].
In the case of `COC(=O)CCCCCCCCCC[N+]1(C)CCCCC1`, the Potency was inconclusive: 10.3 µM [rising, partial curve].
In the case of `Cc1ccn2c(Nc3ccccc3)c(-c3ccccn3)nc2c1`, the Potency was inconclusive: 23.1 µM [cytotoxic, partial curve, poor fit].
In the case of `c1ccc(CNc2ncnc3c2cnn3Cc2ccccc2)cc1`, the Potency was inconclusive: 16.4 µM [cytotoxic, partial curve, poor fit].
With `CCC(=O)N1CCN(c2ccc(Cl)cc2NC(=O)c2ccc3c(c2)OCCO3)CC1` the Potency was active: 5.17 µM.
In the case of `COc1ccc(C)cc1NC(=O)CCNC(=O)Cn1ccc2ccccc2c1=O`, the Potency was “inactive”.
In the case of `N#CC1=C(SCC(=O)NC23CC4CC(CC(C4)C2)C3)NC(=O)C(C#N)C12CCCCC2` (centres undefined), the Potency was active: 11.6 µM.
In the case of `Cc1ccc(S(=O)(=O)N(CC(=O)Nc2ccc(C)cc2C)C(=O)N2CCN(C)CC2)cc1`, the Potency was inconclusive: 14.6 µM [rising, partial curve, poor fit].
For `CCCCCC/C(C)=C1/SC(=S)NC1=O`, the Potency was inconclusive: 23.1 µM [cytotoxic, partial curve].
For `COc1ccc(/C=N/NC(=S)Nc2ccccc2)cc1COc1ccc(F)cc1`, the “activity change, negative = cytotoxicity” value was inactive: -8.83%.
In the case of `COc1ccc2oc(-c3ccc(C)c(NC(=O)c4ccc5c(c4)OCCO5)c3)nc2c1`, the “activity change, negative = cytotoxicity” value was inactive: 15.8%.
With `COc1ccc(-n2ncc(C(=O)Nc3ccc4c(c3)OCO4)c2C2CCN(C(=O)OC(C)(C)C)CC2)cc1` the “activity change, negative = cytotoxicity” value was inactive: -3.58%.
In the case of `Cc1ccc(NC(=O)Cn2cc(S(=O)(=O)Cc3cccc(Cl)c3)c3ccccc32)cc1C`, the “activity change, negative = cytotoxicity” value was inactive: 18.2%.
In the case of `Cc1ccc(SCC(=O)OCc2csc(CC(=O)Nc3ccccc3C)n2)cc1C`, the Potency was inconclusive: 29.1 µM [rising, single point].
For `COc1ccc(CC(=O)NC(=S)Nc2ccc(S(N)(=O)=O)cc2)cc1`, the “activity change, negative = cytotoxicity” value was inactive: -8.95%.
For `COc1cc(/C=C(/C#N)C(=O)Nc2ccccc2)ccc1OCc1ccc(C(=O)O)cc1`, the “activity change, negative = cytotoxicity” value was inactive: 11.5%.
In the case of `O=C(NCc1ccccc1Br)c1ccc2c(c1)nc1n2CCOC1`, the Potency was inconclusive: 29.1 µM [rising, single point].
With `Cc1cnc(NC(=O)CCCc2nc3ccccc3s2)s1` the Potency was inconclusive: 20.6 µM [cytotoxic, single point].
With `O=C(NC1CCCCCC1)c1cccc(COCC(F)(F)F)c1` the Potency was active: 23.1 µM.
For `Cc1c(C#N)c(N)nc2c3c(sc12)NC(=O)CC3c1ccccc1` (centres undefined), the Potency was inconclusive: 20.6 µM [cytotoxic, single point].
With `CN1/C(=C\C(=O)c2cccs2)Sc2ccccc21` the Potency was inconclusive: 11.6 µM [cytotoxic, partial curve, poor fit].
With `Cc1cc2c(cc1C)C(c1ccccc1OC(C)C)CC(=O)N2` (centres undefined) the Potency was inconclusive: 14.6 µM [cytotoxic, partial curve].
With `Cc1oc(-c2ccc(-c3ccccc3)cc2)nc1CN(C)C1CCOC1` (centres undefined) the Potency was inconclusive: 0.651 µM [cytotoxic, partial curve, poor fit].
In the case of `Cc1cccc(OCCC(=O)Nc2ccc(C)c(S(=O)(=O)N3CCOCC3)c2)c1`, the “activity change, negative = cytotoxicity” value was inactive: -22.5%.
In the case of `Cc1cc(OCC(=O)Nc2c(C(=O)c3ccccc3)oc3ccccc23)cc(C)c1Cl`, the Potency was inconclusive: 18.4 µM [rising, partial curve].
With `COc1ccc(NC(=O)CSc2ccc3c(c2)OCCO3)cc1OC` the Potency was inconclusive: 20.6 µM [cytotoxic, single point].
With `CCOc1ccc(N(CC(=O)Nc2ccccc2OC)S(=O)(=O)c2ccccc2)cc1` the Potency was active: 1.03 µM.
For `COc1ccc2[nH]c(CN3CCN(CCC(C)C)C(CCO)C3)c(C)c2c1` (centres undefined), the “activity change, negative = cytotoxicity” value was inactive: 2.52%.
In the case of `CCCCN(CC)CCCNC(=S)Nc1ccc2nc3n(c(=O)c2c1)CCCCC3`, the Potency was inconclusive: 18.4 µM [rising, single point].
With `CCC(C)c1ccc(N(C(=O)c2ccco2)C(C(=O)NC2CCCC2)c2cccnc2)cc1` (centres undefined) the Potency was inconclusive: 23.1 µM [cytotoxic, single point].
In the case of `COc1ccc(NS(=O)(=O)c2cccc(C(=O)NN=Cc3ccc(OC)c(O)c3)c2)cc1`, the Potency was inconclusive: 29.1 µM [rising, single point].
With `Cc1ccc(Cn2c(C)cc3c(c2=O)C(c2cccs2)C(C#N)=C(N)O3)cc1` (centres undefined) the “activity change, negative = cytotoxicity” value was inactive: -15%.
With `CCCC(=O)Nc1ccc(Cl)c(NC(=O)c2ccco2)c1` the Potency was inconclusive: 25.9 µM [cytotoxic, single point].
For `Cc1ccc(N=C2N=C(N)c3ccccc32)cc1C`, the Potency was inconclusive: 23.1 µM [cytotoxic, single point].
With `Cc1cc(C(F)F)n2ncc(C(=O)NCc3ccccc3F)c2n1` the activity change, negative = cytotoxicity was inconclusive: -93%.
With `CC(=O)N1CCN(S(=O)(=O)c2cccc(C(=O)Nc3cc(C(F)(F)F)ccc3N3CCOCC3)c2)CC1` the Potency was inconclusive: 14.6 µM [cytotoxic, single point].
For `COc1cc(NC(=S)NC(=O)CCc2ccccc2)cc(OC)c1`, the Potency was inconclusive: 32.6 µM [cytotoxic, single point].
In the case of `CCN(CC(=O)Nc1ccc(C(=O)Nc2ccc(OC)cc2)cc1)Cc1nc2ccccc2c(=O)[nH]1`, the “activity change, negative = cytotoxicity” value was inactive: -4.41%.
For `O=[N+]([O-])c1ccc(C(O)CN2CCN(c3ccccc3)CC2)cc1` (centres undefined), the “activity change, negative = cytotoxicity” value was inactive: -6.33%.
For `N#CC1=C(C2CC2)CC(c2ccccc2)C(C#N)=C1N` (centres undefined), the Potency was active: 23.1 µM.
In the case of `Oc1ccc(Cl)cc1C1=NNC(c2cccs2)C1` (centres undefined), the Potency was inconclusive: 8.2 µM [cytotoxic, partial curve, poor fit].
In the case of `Cc1cc(F)ccc1NC(=O)C1CCN(C(=O)c2cnn(-c3ccccc3)c2-n2cccc2)CC1`, the “activity change, negative = cytotoxicity” value was inactive: -2.93%.
In the case of `Cc1cc(NC(=O)CSc2nnc3c(C)cc4c(C)ccc(C)c4n23)no1`, the Potency was active: 3.26 µM.
In the case of `CCC1Sc2ccc(S(=O)(=O)CCC(=O)Nc3ccc(NC(C)=O)cc3)cc2NC1=O` (centres undefined), the Potency was inconclusive: 13 µM [rising, partial curve, poor fit].
For `CN1C[C@@H]2[C@@H]3C(=O)N(C)C(=O)[C@@H]3[C@](Cc3ccccc3)(C1=O)N2C(=O)c1ccccc1`, the activity change, negative = cytotoxicity was inconclusive: -12.2%.
In the case of `O=C(c1ccccc1)c1cn(Cc2ccc(F)cc2)c2ccccc2c1=O`, the Potency was inconclusive: 16.4 µM [cytotoxic, single point].
In the case of `CCOC(=O)c1cnc(N2CCOCC2)[nH]c1=O`, the Potency was inconclusive: 20.6 µM [rising, single point].
In the case of `O=C1C=CC(=O)C(CNc2ccc(C(=O)OCc3ccccc3)cc2)=C1`, the Potency was active: 20.6 µM.
With `Cc1cnc(N=Nc2ccccc2)[nH]1` the “activity change, negative = cytotoxicity” value was inactive: 10.6%.
For `CCN(C(=O)Cn1cc(C(F)(F)F)ccc1=O)c1c(N)n(Cc2ccccc2)c(=O)[nH]c1=O`, the “activity change, negative = cytotoxicity” value was inactive: 8.91%.
In the case of `N#Cc1ccc(C(=O)Nc2nnc(-c3ccco3)o2)cc1`, the Potency was inconclusive: 0.651 µM [cytotoxic, full curve, poor fit].
In the case of `Cc1ccccc1CN1CC2=C(CCN(Cc3ccccc3)C2=O)N2CCN=C12`, the “activity change, negative = cytotoxicity” value was inactive: 0%.
